HELM strings list residues between dots; [ac] is acetyl, [am] amide, other brackets name non-standard units.

A short description of the series: general procedure: solution-phase peptide synthesis; DCCI/HOBT; ONp active esters. The following applies: HCl.

Turning to α-Boc-Ile-O-Bzl-Ser-Gly-ε-Z-Lys-pNA, under “coupling step”, the step yield is given as 72%.

Consider α-Ac-Ile-γ-O-Bzl-Glu-Glyc-Arg-pNA.HCl, for which the step yield (late stage modification step) came out at 94%.

Substance α-Boc-Ile-γ-O-Bzl-Glu-Gly-ε-Z-Lys-pNA came in with a step yield (coupling step) of 61%.

α-Boc-Ile-O-Bzl-Thr-Gly-ε-Z-Lys-pNA yielded a step yield (coupling step) of 50%.

As to PEPTIDE1{[ac].I.E.G.K.[pNA]}$$$$V2.0, under “late stage modification step”, the step yield stood at 42% and the “final HPLC purity” value came out at 98%.

Turning to Ac--Ile--Glu-Glycolyl-Arg--pNA.HCl, for the setting “late stage modification step”, the step yield turned out to be 31% and the “final HPLC purity” value was found to be 98%.

For PEPTIDE1{[ac].I.S.G.K.[pNA]}$$$$V2.0, where the note is “late stage modification step”, the step yield was 35% and the “final HPLC purity” value is 97%.

Consider α-Ac-Ile-γ-O-Bzl-Glu-Gly-Z-Lys-pNA, for which the step yield (late stage modification step) is 86%.

As for α-Boc-Ile-γ-O-Bzl-Glu-Glyc-Arg-pNA.HCl, the step yield (coupling step) worked out at 69%.

Regarding α-Ac-Ile-O-Bzl-Thr-Gly-ε-Z-Lys-pNA, the step yield (late stage modification step) was 86%.

Substance α-Ac-Ile-O-Bzl-Ser-Gly-ε-Z-Lys-pNA registered a step yield (late stage modification step) of 85%.

With α-Ac-Ile-Thr-Gly-Lys-pNA.HCl, for the setting “late stage modification step”, the step yield was found to be 36% and the “final HPLC purity” value is recorded as 97%.

Source of the values: US5334703A (Chromonogenix AB, priority 1989, dated 1994).
